Assay results: the supplement of paper PMC10735217
Where a name gives a salt, the structure may show the parent alone. The list shows a part of the results. Repeats in this data set agree poorly, so a single value says little.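 Human kidney-derived cells stably carry a construct in which eight TEAD-binding elements drive luciferase, measured by luminescence in a drug-repurposing library screen. A hit is any compound whose signal exceeds the plate mean by more than five robust Z scores.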

System: HEK293A TEAD-LUC reporter
Assay: TEAD-luciferase reporter activity (YAP activation), robust Z score vs plate; higher = stronger YAP/TEAD activation
Details: 24 h

SMILES	TEAD-luciferase reporter activity (compound concentration: 200 nM)	TEAD-luciferase reporter activity (compound concentration: 2 uM)	TEAD-luciferase reporter activity (compound concentration: 10 uM)
COc1ccc(C(=O)N2CCN(c3ccc4c(c3)CCC(=O)N4)CC2)cc1OC	inactive: -0.654	inactive: -0.301	inactive: 0.0978
CCOC(=O)C[C@H](NC(=O)CN1C(=O)N[C@@](C)(c2ccc(C(=N)N)cc2)C1=O)c1ccccc1	inactive: 1.36	inactive: -0.298	inactive: -1.11
COc1ccc(S(=O)(=O)NCc2cc(CN3CCCC3)c(O)c(CN3CCCC3)c2)cc1 [Sulcardine sulfate]	inactive: -0.395	inactive: -1.19	inactive: 0.188
CCOC(=O)[C@H](CCc1ccccc1)N[C@@H](C)C(=O)N1CCC[C@H]1C(=O)OCCCO[N+](=O)[O-]	inactive: 0.201	inactive: 0.668	inactive: 3.36
COc1cc2ncnc(Nc3ccc(F)c(Cl)c3)c2cc1OCCN1CC2(CC2)C2(C1)OCCO2	inactive: -2.07	inactive: -1.69	inactive: 0.386
Cc1ccccc1NC(=O)Nc1ccc(CC(=O)N[C@@H](CC(C)C)C(=O)N[C@@H](CC(=O)O)C(=O)N[C@H](C(=O)N2CCC[C@H]2C(=O)O)C(C)C)cc1	inactive: -0.893	inactive: -0.209	active: 5.01
CCS(=O)(=O)c1ccc(OC)c(Nc2nccc(N(C)c3ccc4c(C)n[nH]c4c3)n2)c1	inactive: -0.121	inactive: -1.83	inactive: -1.76
CC(C)(C)c1cc(C2CCCCC2)ccc1OC(=O)c1ccncc1	inactive: -1.15	inactive: -0.124	inactive: -1.33
CCNC(=O)NCCCOc1cccc(CN2CCCCC2)c1 [Dalcotidine]	inactive: -1.29	inactive: -1.98	inactive: 0.103
COc1ccc2[nH]c(SCCN3CCOCC3)nc2c1	inactive: 0.657	inactive: 1.09	inactive: -0.536
CCCCc1nc(CCCC)c(Cc2ccc(-c3ccccc3-c3nn[nH]n3)cc2)c(=O)[nH]1	inactive: 0.905	inactive: 1.28	inactive: 0.622
CC(C)COc1ccccc1N(CCCCN(C)CCc1cccnc1)C(=O)c1cccc(C(F)(F)F)c1	inactive: 1.62	inactive: -1.16	inactive: 0.272
COc1ccccc1OC(=O)c1ccccc1OC(C)=O [guacetisal]	inactive: -1.12	inactive: 1.06	inactive: 0.388
COc1cc(C(=O)NS(=O)(=O)c2ccccc2C)ccc1Cc1cn(C)c2ccc(C(=O)NCC(C)CC(F)(F)F)cc12 (centres undefined)	inactive: 1	inactive: 0.033	inactive: -1.7
CC(=O)Oc1ccc(Br)cc1C(=O)O	inactive: -1.4	inactive: -1.95	inactive: -1.41
Cn1c(=O)c2c(ncn2CC(=O)N2CC3(CCN(CCc4ccccc4)CC3)OC2=O)n(C)c1=O [spirophylline]	inactive: 0.49	inactive: 3.09	inactive: 1.48
CCc1cccc(C)c1CNc1cc(C(N)=O)cn2c(C)c(C)nc12	inactive: 0.738	inactive: -1.07	inactive: -1.79
O=C1C2CCCCC2C(=O)N1CCCCN1CCN(c2nsc3ccccc23)CC1 (centres undefined) [perospirone]	inactive: -0.718	inactive: -0.434	inactive: 4.09
c1ccc2c(c1)CCc1cccc3c1C2CN1CCCCC31 (centres undefined)	inactive: 0.318	inactive: -1.65	inactive: 0.177
c1ccc(N(CCN2CCCCC2)Cc2ccccn2)cc1	inactive: 4.72	inactive: -1.21	inactive: 0.366
Nc1c(Br)cc(Br)cc1CN[C@H]1CC[C@H](O)CC1 [Ambroxol hydrochloride]		inactive: 0.0421	
Nc1c(Br)cc(Br)cc1CN[C@H]1CC[C@H](O)CC1 [Ambroxol HCl]	inactive: -0.965		inactive: 0.0971
O=C(CCBr)N1CC[N+]2(CC1)CC[N+]1(CCN(C(=O)CCBr)CC1)CC2 [Spirobromin]	inactive: -1.98	inactive: -0.986	inactive: -0.628
CN1CCN(C2=Cc3cc(Cl)ccc3/C(=C\C#N)c3ccccc32)CC1	inactive: -1.06	inactive: 0.736	inactive: -1.27
O=C(/C=C/C=C/c1ccc2c(c1)OCO2)N1CCCCC1	inactive: -0.896		active: 6.18
COc1ccc(-c2nc(-c3cccn3CC(=O)O)sc2-c2ccc(OC)cc2)cc1	inactive: -2.28	inactive: 0.153	inactive: -0.0958
COC(=O)Nc1ccc(S(=O)(=O)/N=c2\cc(C(=O)O)[nH]c3cc(Cl)cc(Cl)c23)cc1	inactive: -0.722	inactive: -1.11	inactive: -0.336
COc1ccc(CN[C@@H](C(=O)N[C@H]2c3ccccc3C[C@H]2O)[C@H](O)[C@H](Cc2ccccc2)NC(=O)[C@@H](NC(=O)OCc2ccccc2)C(C)(C)C)cc1	inactive: -1.04	inactive: -0.487	inactive: 1.52

SMILES	TEAD-luciferase reporter activity (compound concentration: 200 nM)	TEAD-luciferase reporter activity (compound concentration: 2 uM)	TEAD-luciferase reporter activity (compound concentration: 10 uM)
COc1cc(N2CCN(C3CCN(c4ccc(F)c5c(OC)cc(C(F)(F)F)nc45)CC3)CC2)c2ncccc2c1	inactive: -1.22	inactive: -0.425	inactive: -2.37
CNC(=S)NCO	inactive: 0.16	inactive: 1.21	inactive: 1.63
CN(C)S(=O)(=O)CCNC(=O)N(CCCl)N=O	inactive: -1.61	inactive: -0.529	inactive: -0.675
CCCNC1CCc2nc(N)sc2C1 (centres undefined) [pramipexole]	inactive: -1.73	inactive: -0.243	inactive: -0.453
C[C@@H](NC(=O)[C@@H](CC(=O)N1CCC(N2CCCCC2)CC1)N1C(=O)[C@@H](N2C(=O)OC[C@@H]2c2ccccc2)[C@H]1/C=C/c1ccccc1)c1ccccc1	inactive: 3.56	inactive: -0.368	inactive: 1.84
COc1ccc(CN2CC(Oc3ccc(OC)cc3)C2)cc1	inactive: 0.0824		inactive: -1.34
CCOC(=O)Nc1ccc(SCC2COC(Cn3ccnc3)(c3ccc(OC)cc3)O2)cc1 (centres undefined)	inactive: 4.47	inactive: 1.04	active: 6.86
CC(C)Nc1cccnc1N1CCN(C(=O)c2cc3cc(NS(C)(=O)=O)ccc3[nH]2)CC1 [delavirdine]		inactive: -0.288	
CC(C)Nc1cccnc1N1CCN(C(=O)c2cc3cc(NS(C)(=O)=O)ccc3[nH]2)CC1 [Delavirdine mesylate]	inactive: -2.45		inactive: -0.931
CNC(=N)NCCC[C@H](NC(=O)[C@H](CC(C)C)NC(=O)NNC(=O)[C@H](Cc1ccccc1)NC(=O)[C@@H](NC(=O)[C@H](CC(N)=O)NC(=O)[C@@H]1C[C@@H](O)CN1C(=O)[C@@H](Cc1ccc(O)cc1)NC(C)=O)[C@@H](C)O)C(=O)N[C@@H](Cc1c[nH]c2ccccc12)C(N)=O	inactive: -0.672	inactive: -0.166	inactive: 2.54
CCC(C)(C)c1ccc(CC(C)CN2C[C@@H](C)O[C@@H](C)C2)cc1 (some centres undefined) [amorolfine]		inactive: 0.0421	
CCC(C)(C)c1ccc(CC(C)CN2C[C@@H](C)O[C@@H](C)C2)cc1 (some centres undefined)	inactive: 1.38		inactive: -1.51
COc1c(O)cc2oc3cc(O)c(CC=C(C)C)c(O)c3c(=O)c2c1CC=C(C)C	inactive: 0.678	inactive: -0.0264	inactive: -0.658
CC1(C)CC(c2cccc[n+]2[O-])c2cc(C#N)ccc2O1 (centres undefined)	inactive: 3.98	inactive: -0.916	inactive: -1.36
N[C@H](C(=O)O)[C@@H]1C=C(Cl)NO1 [acivicin]	inactive: -0.234		inactive: 0.377
CCOC(=O)C1=C(COCCNCC(N)=O)NC(C)=C(C(=O)OC)C1c1ccccc1Cl (centres undefined)	inactive: -1.18	inactive: -0.32	inactive: -1.52
Cc1cnc(C(=O)NCCc2ccc(S(=O)(=O)NC(=O)NC3CCCCC3)cc2)cn1 [glipizide]		inactive: -0.923	
Cc1cnc(C(=O)NCCc2ccc(S(=O)(=O)NC(=O)NC3CCCCC3)cc2)cn1	inactive: 3.55		inactive: -0.821
COc1cc(Cc2cnc(N)nc2N)cc(OC)c1OC [co-trimazine]		inactive: -0.878	
COc1cc(Cc2cnc(N)nc2N)cc(OC)c1OC	inactive: 2.07		inactive: 0.0358
CN(C)CCCN1C(=O)c2cc([N+](=O)[O-])ccc2Oc2ccccc21 [Nitroxazepine]	inactive: -0.891	inactive: -1.96	inactive: 3.97
CC(CNC(=O)c1ccccc1)C(=O)OCC(=O)C12OC(c3ccc(N(C)C)cc3)O[C@@H]1C[C@H]1[C@@H]3CCC4=CC(=O)C=CC4(C)[C@@]3(F)[C@@H](O)CC12C (some centres undefined)	inactive: 1.13	inactive: 1.87	inactive: 0.44
COc1[nH]c2ccc(F)cc2c1C(=O)OCC1CCN(CCNS(C)(=O)=O)CC1	inactive: -0.939	inactive: 0.901	inactive: 0.379
COc1nccnc1NS(=O)(=O)c1ccc(N)cc1	inactive: -1.61	inactive: 1.26	inactive: -1.61
CC1(C)CC[C@]2(C(=O)O[C@@H]3O[C@H](CO)[C@@H](O)[C@H](O)[C@H]3O)[C@@H](O)C[C@]3(C)C(=CCC4[C@@]5(C)CC[C@H](O)C(C)(C)C5CC[C@]43C)[C@@H]2C1 (some centres undefined)	inactive: 1.28	inactive: 0.772	inactive: 2.56
CO[C@H]1/C=C/O[C@@]2(C)Oc3c(C)c(O)c4c(O)c(c5c(nc6cc(C)ccn65)c4c3C2=O)NC(=O)C(C)=C/C=C/[C@H](C)[C@H](O)[C@@H](C)[C@@H](O)[C@@H](C)[C@H](OC(C)=O)[C@@H]1C [rifaximin]		inactive: -0.32	
CO[C@H]1/C=C/O[C@@]2(C)Oc3c(C)c(O)c4c(O)c(c5c(nc6cc(C)ccn65)c4c3C2=O)NC(=O)C(C)=C/C=C/[C@H](C)[C@H](O)[C@@H](C)[C@@H](O)[C@@H](C)[C@H](OC(C)=O)[C@@H]1C	inactive: 1.37		inactive: 0.809

Random excerpt: 3 entries already listed, in no set order.
SMILES	TEAD-luciferase reporter activity (compound concentration: 200 nM)	TEAD-luciferase reporter activity (compound concentration: 2 uM)	TEAD-luciferase reporter activity (compound concentration: 10 uM)
COc1cc(Cc2cnc(N)nc2N)cc(OC)c1OC [co-trimazine]		inactive: -0.878	
Nc1c(Br)cc(Br)cc1CN[C@H]1CC[C@H](O)CC1 [Ambroxol HCl]	inactive: -0.965		inactive: 0.0971
CC1(C)CC(c2cccc[n+]2[O-])c2cc(C#N)ccc2O1 (centres undefined)	inactive: 3.98	inactive: -0.916	inactive: -1.36
